Test system: A549 cells
Test: MTT anti-proliferative assay, A549
Assay type: cell-based, human
Settings: mean ± SD of three experiments
Method: The antiproliferative activity of the synthesised derivatives of the 3-methylbenzofuran series (4a–d, 6a–c, 8a–c and 11) and the 3-(morpholinomethyl)benzofuran series (15a–c, 16a–b, 17a–b and 18) was evaluated against non-small cell lung carcinoma (NSCLC) A549 and NCI-H23 cell lines, following the procedures of the MTT assay. […] 1. Anti-proliferative action toward human […] cell lines […]
The two examined human non-small cell lung carcinoma cell lines (A549 and NCI-H23) have been obtained from American Type Culture Collection (ATCC). The cells were maintained in Dulbecco's modified Eagle's medium (DMEM) supplemented with 10% heat inactivated fetal calf serum (GIBCO), penicillin (100 U/ml) and streptomycin (100 µg/ml) at 37 °C in humidified atmosphere containing 5% CO2. […]
flask in 5 ml of culture medium. The anti-proliferative activity of the tested 3-methylbenzofurans (4a-d, 6a-c, 8a-c and 11) and 3-(morpholinomethyl)benzofurans (15a-c, 16a-b, 17a-b and 18) measured in vitro using the MTT assay. […]
solution in PBS (5 mg/ml) was then added to all well including no cell blank and left to incubate for 90 min. […] DMSO (100 µl/well) was added to dissolve the formazan crystals with shaking for 10 min after which the absorbance was read at 590 nm against no cell blanks on a microplate reader. […]

Structure (SMILES): CN[C@@H]1C[C@H]2O[C@@](C)([C@@H]1OC)n1c3ccccc3c3c4c(c5c6ccccc6n2c5c31)C(=O)NC4 [Staurosporine, reference compound]
- IC50 (48 h): 1520 ± 50 nM
- IC50 (Homo sapiens, A549, 48 h): 1500 nM

Reference: publication PMC8128204, “Development of 3-methyl/3-(morpholinomethyl)benzofuran derivatives as novel antitumor agents towards non-small cell lung cancer cells” (Journal of Enzyme Inhibition and Medicinal Chemistry, 2021)
